Laboratory results: article PMC9468158, “Transmembrane helices mediate the formation of a stable ternary complex of b5R, cyt b5, and SCD1” (Communications Biology, 2022)
Results are given in words; binding and its absence hold for the method and conditions named. In cells and extracts the contact can be indirect. Some binding calls cover weakened binding; strength is not graded here. Tags and fused reporters may be left off the sequences shown. Values belong to the molecule of their own block, whether it stands above or below them.

The chains behind the UniProt entries cited, without tags or fusion partners.
UniProt P56395: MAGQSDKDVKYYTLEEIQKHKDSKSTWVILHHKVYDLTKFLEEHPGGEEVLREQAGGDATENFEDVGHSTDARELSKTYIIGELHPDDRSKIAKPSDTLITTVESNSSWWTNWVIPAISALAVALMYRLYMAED

How the values were obtained:
[1] = target: T1, SCD1-GFP (mouse stearoyl-CoA desaturase-1 with a C-terminal GFP tag) (mouse) (UniProt P13516); test: co-IP; lysate of co-transfected HEK 293S cells (20 mM HEPES pH 7.5, 150 mM NaCl, 10% glycerol, 0.2% Triton X-100), GFP-tagged bait captured on GFP nanobody-conjugated resin, 30 min at 4 °C, washed in 0.1% Triton X-100, western blot for GFP, Myc and HA
T1 sequence: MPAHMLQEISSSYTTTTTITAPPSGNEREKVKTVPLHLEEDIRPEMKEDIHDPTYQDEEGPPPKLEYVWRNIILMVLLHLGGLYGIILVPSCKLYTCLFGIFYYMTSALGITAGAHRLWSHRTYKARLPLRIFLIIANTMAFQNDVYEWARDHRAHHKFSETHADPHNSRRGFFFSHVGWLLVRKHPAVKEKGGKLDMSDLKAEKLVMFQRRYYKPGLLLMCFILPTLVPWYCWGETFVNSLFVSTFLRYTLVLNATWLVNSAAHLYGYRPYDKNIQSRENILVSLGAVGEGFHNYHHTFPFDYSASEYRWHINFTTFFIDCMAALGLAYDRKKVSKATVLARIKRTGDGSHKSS

[2] = target: Myc-cyt b5 (mouse cytochrome b5 with an N-terminal Myc tag) (mouse) (UniProt P56395); test: co-IP; lysate of co-transfected HEK 293S cells (0.2% Triton X-100), Myc-cyt b5 captured with rabbit anti-Myc antibodies and protein A agarose, 30 min at 4 °C, western blot

binding [1]: binds
Molecule: Myc-cyt b5 (mouse cytochrome b5 with an N-terminal Myc tag) (from UniProt P56395 1-134)

binding [2]: binds
binding [1]: binds
B1: HA-b5R (mouse cytochrome b5 reductase with an N-terminal HA tag) (enzyme, UniProt Q9DCN2 1-301)
chain: MGAQLSTLSHVVLSPVWFIYSLFMKLFQRSTPAITLENPDIKYPLRLIDKEVISPDTRRFRFALPSPQHILGLPIGQHIYLSTRIDGNLVIRPYTPVSSDDDKGFVDLVVKVYFKDTHPKFPAGGKMSQYLENMKIGDTIEFRGPNGLLVYQGKGKFAIRADKKSNPVVRTVKSVGMIAGGTGITPMLQVIRAVLKDPNDHTVCYLLFANQSEKDILLRPELEELRNEHSARFKLWYTVDKAPDAWDYSQGFVNEEMIRDHLPTPGEEPLILMCGPPPMIQFACLPNLERVGHPKERCFTF
